According to the supplement of paper PMC7666118:
Some of the results follow.

Sequences of proteins named here, by UniProt entry; tags and fusion partners are left off. A change or cut given only in a name is not applied to a line headed by its entry.
UniProt O14787: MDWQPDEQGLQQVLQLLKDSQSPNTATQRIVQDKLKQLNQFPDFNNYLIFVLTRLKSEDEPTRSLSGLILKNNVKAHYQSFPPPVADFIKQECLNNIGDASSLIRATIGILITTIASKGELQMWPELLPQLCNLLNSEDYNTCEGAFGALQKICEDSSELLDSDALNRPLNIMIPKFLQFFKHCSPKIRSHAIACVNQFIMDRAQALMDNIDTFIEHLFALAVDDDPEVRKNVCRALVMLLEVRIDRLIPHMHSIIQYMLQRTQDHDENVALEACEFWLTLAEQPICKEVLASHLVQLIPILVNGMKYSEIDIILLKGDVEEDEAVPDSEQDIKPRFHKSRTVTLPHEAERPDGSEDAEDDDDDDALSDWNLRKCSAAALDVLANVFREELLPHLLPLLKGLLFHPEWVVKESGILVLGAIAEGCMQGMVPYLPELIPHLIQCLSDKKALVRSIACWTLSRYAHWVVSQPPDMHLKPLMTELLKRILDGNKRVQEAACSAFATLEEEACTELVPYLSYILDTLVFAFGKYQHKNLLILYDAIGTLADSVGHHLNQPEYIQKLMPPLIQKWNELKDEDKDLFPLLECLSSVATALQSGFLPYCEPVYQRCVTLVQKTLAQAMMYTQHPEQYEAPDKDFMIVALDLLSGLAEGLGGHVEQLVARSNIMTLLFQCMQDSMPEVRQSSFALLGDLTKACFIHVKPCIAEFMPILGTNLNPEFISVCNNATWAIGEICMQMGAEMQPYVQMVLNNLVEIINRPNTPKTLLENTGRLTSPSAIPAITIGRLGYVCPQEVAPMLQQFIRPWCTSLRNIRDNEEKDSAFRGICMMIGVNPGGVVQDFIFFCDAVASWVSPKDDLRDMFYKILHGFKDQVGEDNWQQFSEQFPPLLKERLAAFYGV
UniProt Q8N511: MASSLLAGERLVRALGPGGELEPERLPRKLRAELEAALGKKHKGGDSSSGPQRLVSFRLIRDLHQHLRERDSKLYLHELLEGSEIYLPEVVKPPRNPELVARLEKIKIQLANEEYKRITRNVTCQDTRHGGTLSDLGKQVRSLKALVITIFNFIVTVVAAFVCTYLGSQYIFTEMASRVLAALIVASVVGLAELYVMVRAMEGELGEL
UniProt Q9UM00: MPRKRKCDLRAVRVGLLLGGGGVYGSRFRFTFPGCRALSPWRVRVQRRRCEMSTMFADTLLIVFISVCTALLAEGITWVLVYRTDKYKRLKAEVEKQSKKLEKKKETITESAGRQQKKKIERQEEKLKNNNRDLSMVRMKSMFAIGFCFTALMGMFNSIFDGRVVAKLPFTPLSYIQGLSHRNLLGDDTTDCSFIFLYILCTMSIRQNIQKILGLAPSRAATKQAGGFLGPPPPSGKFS
UniProt Q15813: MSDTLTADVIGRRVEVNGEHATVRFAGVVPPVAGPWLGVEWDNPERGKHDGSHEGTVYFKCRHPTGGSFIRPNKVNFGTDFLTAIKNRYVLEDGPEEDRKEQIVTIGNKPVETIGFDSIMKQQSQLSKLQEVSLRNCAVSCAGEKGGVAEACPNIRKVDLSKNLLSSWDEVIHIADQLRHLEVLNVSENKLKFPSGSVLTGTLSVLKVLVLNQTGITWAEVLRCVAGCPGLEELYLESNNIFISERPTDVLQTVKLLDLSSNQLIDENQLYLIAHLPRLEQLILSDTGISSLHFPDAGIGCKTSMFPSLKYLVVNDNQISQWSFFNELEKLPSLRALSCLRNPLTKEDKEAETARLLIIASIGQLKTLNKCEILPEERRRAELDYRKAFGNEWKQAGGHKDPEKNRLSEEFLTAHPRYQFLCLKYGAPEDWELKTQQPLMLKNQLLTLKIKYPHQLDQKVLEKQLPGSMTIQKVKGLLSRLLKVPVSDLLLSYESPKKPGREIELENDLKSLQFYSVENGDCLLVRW
UniProt Q8N5G2: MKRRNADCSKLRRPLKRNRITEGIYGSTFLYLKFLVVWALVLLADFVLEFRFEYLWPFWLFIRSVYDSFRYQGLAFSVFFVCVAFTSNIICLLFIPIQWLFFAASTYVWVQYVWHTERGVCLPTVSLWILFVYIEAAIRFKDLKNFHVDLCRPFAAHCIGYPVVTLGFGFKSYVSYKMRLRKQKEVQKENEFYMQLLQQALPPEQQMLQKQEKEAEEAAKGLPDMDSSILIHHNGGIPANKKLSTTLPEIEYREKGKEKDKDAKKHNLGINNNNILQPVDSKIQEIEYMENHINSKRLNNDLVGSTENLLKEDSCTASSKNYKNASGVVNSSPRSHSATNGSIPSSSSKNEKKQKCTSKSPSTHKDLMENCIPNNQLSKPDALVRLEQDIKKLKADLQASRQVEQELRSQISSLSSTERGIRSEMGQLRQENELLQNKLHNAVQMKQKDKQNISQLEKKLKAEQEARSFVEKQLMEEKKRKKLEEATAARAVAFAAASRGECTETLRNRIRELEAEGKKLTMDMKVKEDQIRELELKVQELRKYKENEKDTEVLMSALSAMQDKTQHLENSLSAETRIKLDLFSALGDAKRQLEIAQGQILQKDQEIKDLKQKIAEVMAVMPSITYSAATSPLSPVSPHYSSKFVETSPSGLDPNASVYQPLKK
UniProt Q99426: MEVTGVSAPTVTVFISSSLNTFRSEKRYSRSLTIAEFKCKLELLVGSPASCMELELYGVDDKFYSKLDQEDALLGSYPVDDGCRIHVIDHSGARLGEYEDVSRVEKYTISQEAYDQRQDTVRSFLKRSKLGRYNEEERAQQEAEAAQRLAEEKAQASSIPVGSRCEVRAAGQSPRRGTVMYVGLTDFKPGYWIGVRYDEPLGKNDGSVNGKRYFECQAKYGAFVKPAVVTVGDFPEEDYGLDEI
UniProt Q9NV96: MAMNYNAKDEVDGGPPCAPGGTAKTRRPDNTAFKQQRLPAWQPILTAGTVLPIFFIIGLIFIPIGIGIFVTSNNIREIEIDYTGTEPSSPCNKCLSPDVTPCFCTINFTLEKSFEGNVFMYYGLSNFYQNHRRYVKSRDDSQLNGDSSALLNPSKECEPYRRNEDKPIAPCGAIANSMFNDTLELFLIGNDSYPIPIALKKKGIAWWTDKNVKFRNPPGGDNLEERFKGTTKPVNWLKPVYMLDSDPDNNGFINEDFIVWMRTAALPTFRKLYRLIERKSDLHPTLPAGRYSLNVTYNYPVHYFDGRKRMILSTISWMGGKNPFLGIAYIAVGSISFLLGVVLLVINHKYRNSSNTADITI
UniProt Q9UPQ9, whole entry: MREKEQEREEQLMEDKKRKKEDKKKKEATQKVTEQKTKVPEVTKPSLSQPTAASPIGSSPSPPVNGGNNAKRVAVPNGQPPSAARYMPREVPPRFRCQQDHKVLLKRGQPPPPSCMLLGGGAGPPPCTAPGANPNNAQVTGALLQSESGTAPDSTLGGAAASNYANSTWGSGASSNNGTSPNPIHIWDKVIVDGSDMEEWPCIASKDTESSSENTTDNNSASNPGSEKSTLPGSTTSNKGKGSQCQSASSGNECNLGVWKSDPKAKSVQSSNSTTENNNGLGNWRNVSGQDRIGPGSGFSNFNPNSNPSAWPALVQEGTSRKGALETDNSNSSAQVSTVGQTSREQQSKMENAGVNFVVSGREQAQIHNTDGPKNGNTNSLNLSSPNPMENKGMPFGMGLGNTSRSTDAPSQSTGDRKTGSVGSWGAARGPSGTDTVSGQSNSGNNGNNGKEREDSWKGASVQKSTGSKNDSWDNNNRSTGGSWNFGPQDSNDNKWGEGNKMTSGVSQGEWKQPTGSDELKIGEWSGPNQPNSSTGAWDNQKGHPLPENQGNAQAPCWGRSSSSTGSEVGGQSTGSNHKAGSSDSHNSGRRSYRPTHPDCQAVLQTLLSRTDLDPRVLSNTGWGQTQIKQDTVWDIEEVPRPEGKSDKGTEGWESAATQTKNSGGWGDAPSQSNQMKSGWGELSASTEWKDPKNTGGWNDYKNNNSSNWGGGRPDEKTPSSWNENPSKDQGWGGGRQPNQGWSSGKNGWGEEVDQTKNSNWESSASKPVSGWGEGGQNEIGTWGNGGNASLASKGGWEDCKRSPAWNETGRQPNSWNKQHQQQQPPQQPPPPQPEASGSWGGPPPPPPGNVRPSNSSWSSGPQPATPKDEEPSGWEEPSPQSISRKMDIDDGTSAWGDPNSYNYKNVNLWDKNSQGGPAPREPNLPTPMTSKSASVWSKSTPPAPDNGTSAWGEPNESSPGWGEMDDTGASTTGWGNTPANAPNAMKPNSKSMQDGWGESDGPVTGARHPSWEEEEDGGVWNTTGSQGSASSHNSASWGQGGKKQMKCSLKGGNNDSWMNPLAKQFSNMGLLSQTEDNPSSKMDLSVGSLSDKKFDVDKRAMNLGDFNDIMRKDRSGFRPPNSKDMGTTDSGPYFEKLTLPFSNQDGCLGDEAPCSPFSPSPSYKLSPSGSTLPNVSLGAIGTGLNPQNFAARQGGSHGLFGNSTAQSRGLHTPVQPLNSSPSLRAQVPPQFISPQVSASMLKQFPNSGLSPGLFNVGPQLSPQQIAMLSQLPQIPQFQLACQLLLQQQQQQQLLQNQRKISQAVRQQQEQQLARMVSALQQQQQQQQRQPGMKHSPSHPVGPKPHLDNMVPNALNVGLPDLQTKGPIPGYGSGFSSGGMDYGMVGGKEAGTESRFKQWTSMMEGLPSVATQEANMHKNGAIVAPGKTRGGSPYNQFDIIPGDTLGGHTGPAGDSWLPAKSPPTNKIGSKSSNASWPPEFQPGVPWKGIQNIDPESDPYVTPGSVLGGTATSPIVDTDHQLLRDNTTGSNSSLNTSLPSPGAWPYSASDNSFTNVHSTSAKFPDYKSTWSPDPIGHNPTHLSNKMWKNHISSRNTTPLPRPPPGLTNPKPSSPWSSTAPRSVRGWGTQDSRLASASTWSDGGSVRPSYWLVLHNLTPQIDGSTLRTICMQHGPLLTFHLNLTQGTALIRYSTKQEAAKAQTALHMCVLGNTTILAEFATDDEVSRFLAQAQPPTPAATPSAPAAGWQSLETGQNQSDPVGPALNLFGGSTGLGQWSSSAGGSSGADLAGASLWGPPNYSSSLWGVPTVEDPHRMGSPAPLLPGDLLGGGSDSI
UniProt P55327: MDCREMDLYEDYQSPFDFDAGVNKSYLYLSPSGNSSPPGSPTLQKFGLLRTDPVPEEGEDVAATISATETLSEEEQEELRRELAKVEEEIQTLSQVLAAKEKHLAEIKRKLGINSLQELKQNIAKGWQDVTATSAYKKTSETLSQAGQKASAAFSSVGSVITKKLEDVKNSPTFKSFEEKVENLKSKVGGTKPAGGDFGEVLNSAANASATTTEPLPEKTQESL
UniProt Q8WVM0: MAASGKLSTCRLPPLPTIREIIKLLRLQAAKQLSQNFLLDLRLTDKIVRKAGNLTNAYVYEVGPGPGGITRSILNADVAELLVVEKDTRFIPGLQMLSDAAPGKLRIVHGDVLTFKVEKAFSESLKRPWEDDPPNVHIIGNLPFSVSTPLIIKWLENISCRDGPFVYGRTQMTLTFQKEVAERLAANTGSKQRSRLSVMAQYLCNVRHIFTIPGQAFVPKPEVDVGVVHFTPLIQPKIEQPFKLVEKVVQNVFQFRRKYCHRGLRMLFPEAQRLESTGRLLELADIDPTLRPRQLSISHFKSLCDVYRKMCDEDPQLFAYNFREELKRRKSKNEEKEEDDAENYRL
UniProt O43615: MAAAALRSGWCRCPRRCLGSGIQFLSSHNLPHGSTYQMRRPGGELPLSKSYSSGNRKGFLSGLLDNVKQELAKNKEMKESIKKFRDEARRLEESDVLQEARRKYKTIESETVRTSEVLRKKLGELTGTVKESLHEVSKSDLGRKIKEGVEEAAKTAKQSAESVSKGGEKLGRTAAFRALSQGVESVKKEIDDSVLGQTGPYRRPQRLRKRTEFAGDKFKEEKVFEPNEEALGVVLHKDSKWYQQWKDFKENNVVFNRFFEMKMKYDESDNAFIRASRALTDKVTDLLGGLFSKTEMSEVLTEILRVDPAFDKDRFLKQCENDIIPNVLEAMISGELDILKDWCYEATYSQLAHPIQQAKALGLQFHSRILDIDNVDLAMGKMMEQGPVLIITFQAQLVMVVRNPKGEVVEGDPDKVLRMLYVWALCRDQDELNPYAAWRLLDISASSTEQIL
UniProt Q9BV81: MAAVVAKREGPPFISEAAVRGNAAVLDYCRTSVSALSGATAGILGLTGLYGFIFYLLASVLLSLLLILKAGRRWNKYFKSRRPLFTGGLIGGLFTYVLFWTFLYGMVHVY
UniProt O00220, whole entry: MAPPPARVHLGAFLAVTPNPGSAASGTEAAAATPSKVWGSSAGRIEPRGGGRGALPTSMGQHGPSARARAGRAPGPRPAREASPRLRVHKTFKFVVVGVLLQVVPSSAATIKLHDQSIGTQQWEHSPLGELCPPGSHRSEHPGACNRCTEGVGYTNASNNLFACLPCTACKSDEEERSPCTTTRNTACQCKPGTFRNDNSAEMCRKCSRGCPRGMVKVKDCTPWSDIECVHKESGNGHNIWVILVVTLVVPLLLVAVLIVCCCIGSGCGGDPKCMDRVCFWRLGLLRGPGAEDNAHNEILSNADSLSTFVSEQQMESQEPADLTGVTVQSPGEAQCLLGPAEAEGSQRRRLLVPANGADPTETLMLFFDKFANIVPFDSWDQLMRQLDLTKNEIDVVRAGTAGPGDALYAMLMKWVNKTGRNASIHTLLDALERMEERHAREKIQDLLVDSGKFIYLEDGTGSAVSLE

These targets were tested with COc1ccc(Cn2ccc3ccc(C(=O)NO)cc32)cc1 (assay: dose-dependent thermal stabilisation call (2D-TPP, DLPTP, 10% FDR) (binary (1 = stabilised)); higher = stabilised by the compound). Settings: system: HL-60 intact cells; concentration range 0.04-10 µM.

Target | dose-dependent thermal stabilisation call
THOC1 (UniProt Q96FV9) | inactive: 0
TNPO2 (UniProt O14787) | inactive: 0
TMEM109 (UniProt Q9BVC6) | inactive: 0
TMEM199 (UniProt Q8N511) | inactive: 0
TOP2A (UniProt P11388) | inactive: 0
TMCO1 (UniProt Q9UM00) | inactive: 0
TBCE (UniProt Q15813) | inactive: 0
TMEM62 (UniProt Q0P6H9) | inactive: 0
TMEM57 (UniProt Q8N5G2) | inactive: 0
TBCB (UniProt Q99426) | inactive: 0
TBC1D22A (UniProt Q8WUA7) | inactive: 0
TMEM30A (UniProt Q9NV96) | inactive: 0
TPBG (UniProt Q13641) | inactive: 0
TMEM97 (UniProt Q5BJF2) | inactive: 0
TCOF1 (UniProt Q13428) | inactive: 0
TMEM159 (UniProt Q96B96) | inactive: 0
TCEB2 (UniProt Q15370) | inactive: 0
TFCP2 (UniProt Q12800) | inactive: 0
TEX2 (UniProt Q8IWB9) | inactive: 0

For reference, some entries already given.
Target | dose-dependent thermal stabilisation call
TMEM109 (UniProt Q9BVC6) | inactive: 0
TMEM199 (UniProt Q8N511) | inactive: 0
TOP2A (UniProt P11388) | inactive: 0
TMCO1 (UniProt Q9UM00) | inactive: 0
TBCE (UniProt Q15813) | inactive: 0
TMEM62 (UniProt Q0P6H9) | inactive: 0
TMEM57 (UniProt Q8N5G2) | inactive: 0
TBCB (UniProt Q99426) | inactive: 0
TBC1D22A (UniProt Q8WUA7) | inactive: 0
TMEM30A (UniProt Q9NV96) | inactive: 0

(listing goes on)

Target | dose-dependent thermal stabilisation call
TNRC6B (UniProt Q9UPQ9) | inactive: 0
TOP2B (UniProt Q02880) | inactive: 0
TPD52 (UniProt P55327) | active: 1
THADA (UniProt Q6YHU6) | inactive: 0
TFB1M (UniProt Q8WVM0) | inactive: 0
TIMM44 (UniProt O43615) | inactive: 0
TOR1A (UniProt O14656) | inactive: 0
TFG (UniProt Q92734) | inactive: 0
TMEM184C (UniProt Q9NVA4) | inactive: 0
TAPBPL (UniProt Q9BX59) | inactive: 0
TLR2 (UniProt O60603) | inactive: 0
TMEM131 (UniProt Q92545) | inactive: 0
TBL1XR1 (UniProt Q9BZK7) | inactive: 0
TMEM41B (UniProt Q5BJD5) | inactive: 0
TMC6 (UniProt Q7Z403) | inactive: 0
TMEM93 (UniProt Q9BV81) | inactive: 0
TCEB1 (UniProt Q15369) | inactive: 0
THOC5 (UniProt Q13769) | inactive: 0
TNFRSF10A (UniProt O00220) | inactive: 0
